Reference: patent publication US8188143B2, “Pharmaceutical composition useful as acetylcholinesterase inhibitors” (Council of Scientific and Industrial Research, priority 2006, dated 2012)
Some results were stated once for a whole list of compounds, not compound by compound.

The chains behind the UniProt entries cited, without tags or fusion partners. Residues count along the entry.
UniProt P37136, 32-614: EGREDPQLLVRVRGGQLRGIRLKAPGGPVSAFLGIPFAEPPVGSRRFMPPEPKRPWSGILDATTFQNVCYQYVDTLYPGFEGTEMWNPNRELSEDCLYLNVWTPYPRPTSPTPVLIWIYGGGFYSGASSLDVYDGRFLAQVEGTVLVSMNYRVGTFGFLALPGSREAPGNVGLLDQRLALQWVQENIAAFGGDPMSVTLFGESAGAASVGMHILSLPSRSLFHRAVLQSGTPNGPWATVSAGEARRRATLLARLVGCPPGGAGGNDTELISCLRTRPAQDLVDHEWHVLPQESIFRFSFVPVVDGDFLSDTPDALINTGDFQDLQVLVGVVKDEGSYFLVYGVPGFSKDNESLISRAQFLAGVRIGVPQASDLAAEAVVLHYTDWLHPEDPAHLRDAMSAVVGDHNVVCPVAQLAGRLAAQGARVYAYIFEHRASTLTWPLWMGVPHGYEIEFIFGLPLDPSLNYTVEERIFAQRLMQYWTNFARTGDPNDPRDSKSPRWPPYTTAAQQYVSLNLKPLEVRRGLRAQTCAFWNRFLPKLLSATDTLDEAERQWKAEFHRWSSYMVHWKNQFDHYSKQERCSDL

Molecular target: T1, Acetylcholinesterase (AChE) (Rattus norvegicus, UniProt P37136)
T1 construct: Aliquots of this supernatant was diluted in the ratio of 1:10 and used as a source of enzyme for the assay; from tissue; host or cells: whole brain of adult male SD rats; 100,000 x g supernatant of a 10% homogenate with Triton X-100
Experiment: Acetylcholinesterase (AChE) assay in brain (in vitro), Ellman method
Type: biochemical
Details: Table 2; 100 μg/1 ml
Description: Acetylcholinesterase (AChE) Assay in Brain (In Vitro)
The study was conducted in adult SD male rats (200-250 g). The rats were perfused under mild ether anesthesia through heart with ice cooled normal saline (0.9% NaCl) to reduce blood-borne cholinesterase from the brain. After perfusion the whole brain was taken out. A 10% (w/v) homogenate of brain was prepared first by homogenizing in an Ultra-Turrax T25 homogenizer at a speed of 9500 rpm thrice giving intervals for few seconds in between the runs, with sodium phosphate buffer (30 mmol/lit, pH 7.0). Sodium phosphate buffer was taken in a volume half to the final volume required for 10% homogenate.
1% Triton X-100 (1% w/v in 30 mmol/lit. sodium phosphate buffer, pH 7.0) is then added in a volume to make the final volume for 10% homogenate, slowly while stirring the homogenate on ice. The homogenate was centrifuged at 100,000×g at 4° C. in a Beckman Ultracentrifuge (LE 80) using a fixed angle rotor (80 Ti) for 60 min. Supernatant was collected and stored at 4° C. Aliquots of this supernatant was diluted in the ratio of 1:10 and used as a source of enzyme for the assay.
The assay of AChE was performed according to method described by Ellman et al. A kinetic profile of the enzyme activity was studied spectrophotometrically at 412 nm at an interval of 15 s. The assay for each sample was run in duplicate and each experiment was performed thrice. The specific activity of AChE is expressed in μmoles/min/mg of protein. The test substance (dissolved in DMSO) was incubated with enzyme source in concentration of 100 μg/1 ml of reaction mixture for 30 min at 37° C. prior to obtain kinetic profile of AChE activity. The AChE inhibitory activity was calculated on the basis of % decrease change from control values.
Protein was estimated in the brain samples by modified Lowry's method. Bovine serum albumin (BSA) was used as standard in the concentration of 1 mg/ml. was estimated in the range of 0.01-0.1 mg/ml. […]

Question: How did the “in vitro inhibition of AChE (range given)” value (“in vitro inhibition of AChE” for short) turn out when `CC(=O)Oc1ccc2c(C)cc(=O)oc2c1OC(C)=O` [4-Methyl-7,8-diacetyloxycoumarin] was run?
Answer: 20-25%

Question: Which “in vitro inhibition of AChE” value does the source give for `Cc1cc(=O)oc2c(OCc3ccccc3)c(OCc3ccccc3)ccc12` [4-Methyl-7,8-dibenzyloxycoumarin] here?
Answer: 20-25%

Question: How did the “in vitro inhibition of AChE” value turn out when `CC(=O)Oc1ccc2c(C)cc(=O)oc2c1` [4-Methyl-7-acetyloxycoumarin] was run?
Answer: 20-25%

Question: Which “in vitro inhibition of AChE” value does the source give for `COc1ccc2c(C)cc(=O)oc2c1` [4-Methyl-7-methoxycoumarin] here?
Answer: 25-49%

Question: For `CC(=O)Oc1ccc2ccc(=O)oc2c1` [7-Acetyloxycoumarin], which “in vitro inhibition of AChE” value is on record?
Answer: 25-49%

Question: Which “in vitro inhibition of AChE” value does the source give for `CC1(C)CCc2cc3ccc(=O)oc3cc2O1` [Dihydroxanthyletin] here?
Answer: 25-49%
